According to patent US20110195494A1 (Boehringer Ingelheim, published 2011):
Results are given in words; binding and its absence hold for the method and conditions named. Some results given as binding are weak or reduced against the parent protein; the word gives no strength.

Sequences of proteins named here, by UniProt entry; tags and fusion partners are left off. A change or cut given only in a name is not applied to a line headed by its entry. Residues count along the entry.
UniProt Q9JI71, residues 27-686: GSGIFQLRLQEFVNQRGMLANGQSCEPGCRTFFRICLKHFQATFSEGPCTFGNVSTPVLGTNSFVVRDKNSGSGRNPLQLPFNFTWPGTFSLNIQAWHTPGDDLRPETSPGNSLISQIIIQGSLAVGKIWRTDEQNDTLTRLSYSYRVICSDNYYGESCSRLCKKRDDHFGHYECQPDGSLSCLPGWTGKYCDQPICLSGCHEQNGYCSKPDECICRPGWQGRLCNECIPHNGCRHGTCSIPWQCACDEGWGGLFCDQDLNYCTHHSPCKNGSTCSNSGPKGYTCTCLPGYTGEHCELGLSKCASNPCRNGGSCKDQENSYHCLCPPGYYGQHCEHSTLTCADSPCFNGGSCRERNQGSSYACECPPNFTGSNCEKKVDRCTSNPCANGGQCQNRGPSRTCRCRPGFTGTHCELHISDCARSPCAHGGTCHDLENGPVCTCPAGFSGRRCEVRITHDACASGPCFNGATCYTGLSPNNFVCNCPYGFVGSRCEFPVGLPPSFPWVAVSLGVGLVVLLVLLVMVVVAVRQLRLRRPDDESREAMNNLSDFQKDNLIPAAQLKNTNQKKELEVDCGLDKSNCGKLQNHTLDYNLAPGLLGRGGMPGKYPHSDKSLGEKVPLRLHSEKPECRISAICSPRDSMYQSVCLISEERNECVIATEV
UniProt P46531, residues 19-526: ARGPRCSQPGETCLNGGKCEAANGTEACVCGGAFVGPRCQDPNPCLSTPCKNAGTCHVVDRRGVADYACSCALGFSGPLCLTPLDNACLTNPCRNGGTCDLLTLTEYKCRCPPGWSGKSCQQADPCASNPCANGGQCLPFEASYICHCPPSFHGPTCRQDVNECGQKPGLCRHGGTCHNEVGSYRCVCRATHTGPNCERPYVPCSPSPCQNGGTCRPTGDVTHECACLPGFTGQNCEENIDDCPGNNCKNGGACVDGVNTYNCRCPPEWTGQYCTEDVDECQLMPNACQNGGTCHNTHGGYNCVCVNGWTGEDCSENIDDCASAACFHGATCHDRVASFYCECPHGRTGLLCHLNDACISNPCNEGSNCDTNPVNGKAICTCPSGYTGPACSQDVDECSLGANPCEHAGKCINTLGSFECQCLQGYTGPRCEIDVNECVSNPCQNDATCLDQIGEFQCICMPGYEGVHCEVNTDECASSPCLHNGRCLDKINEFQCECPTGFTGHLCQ

Biological target: full length mouse DLL4 on overexpressing CHO or HEK293 cells (mouse) (UniProt Q9JI71)
Assay: FMAT competition: unlabelled rhNotch1-Fc against labelled hNotch1/Fc on mDLL4 cells

binding: binds
Substance: recombinant human Notch1/Fc chimera (R&D Systems) (from UniProt P46531 19-526) (Fc fusion)
